From paper PMC11001197, “The PII protein interacts with the Amt ammonium transport and modulates nitrate/nitrite assimilation in mycobacteria” (Frontiers in Microbiology, 2024)
No constants are given. Whether binding was seen depends on the method and setting.

Protein sequences, listed by entry. Tags and fused reporters are not part of them.
UniProt P96890: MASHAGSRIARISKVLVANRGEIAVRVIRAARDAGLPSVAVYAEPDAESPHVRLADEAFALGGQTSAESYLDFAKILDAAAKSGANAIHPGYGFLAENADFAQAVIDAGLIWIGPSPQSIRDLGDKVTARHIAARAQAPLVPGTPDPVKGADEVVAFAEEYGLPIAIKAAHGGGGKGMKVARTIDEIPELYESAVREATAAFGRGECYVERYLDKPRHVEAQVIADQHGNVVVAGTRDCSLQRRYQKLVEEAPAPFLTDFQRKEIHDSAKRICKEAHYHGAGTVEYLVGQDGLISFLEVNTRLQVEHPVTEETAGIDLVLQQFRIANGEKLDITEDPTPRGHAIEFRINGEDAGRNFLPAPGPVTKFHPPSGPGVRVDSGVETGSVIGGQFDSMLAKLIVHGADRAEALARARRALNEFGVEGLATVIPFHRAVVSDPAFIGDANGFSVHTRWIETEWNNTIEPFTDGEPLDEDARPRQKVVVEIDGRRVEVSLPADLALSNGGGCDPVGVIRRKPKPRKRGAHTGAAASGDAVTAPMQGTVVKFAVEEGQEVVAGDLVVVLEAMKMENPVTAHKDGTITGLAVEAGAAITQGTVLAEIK
UniProt P9WN31: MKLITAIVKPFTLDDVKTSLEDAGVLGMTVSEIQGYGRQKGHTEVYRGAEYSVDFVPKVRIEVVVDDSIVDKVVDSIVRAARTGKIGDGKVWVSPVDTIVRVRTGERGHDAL

Target: M. tuberculosis AccA3, His tag fusion (α-subunit of the acyl-CoA carboxylases) (M. tuberculosis) (UniProt P96890)
Assay: pull-down; His-AccA3 as bait with PII in the presence of ADP instead of ATP (Supplementary Figure S2A); ADP concentration not stated; both purified

M. tuberculosis PII protein (GlnB, encoded by Rv2919c), without tags (from UniProt P9WN31 1-112)
binding: no binding (condition: in the presence of ADP)
